Results from US8440619B2, “Utilization of hypertension/hypercardia-preventing effect of D-allose” (National University Corporation Kagawa University, priority 2005, dated 2013).

How the values were obtained:
Format in all cases: in vivo, rat
[1] = Body weight, organ weight and feed intake in DS rats; conditions: 4% salt diet, 2 g daily/kg orally; for Body weight: after 4-week feeding
Text: (§1) Salt-sensitive male Dahl rats of age 7 weeks and with the onset of hypertension (DS) and salt-insensitive male Dahl rats of the same age (DR) were used. The DS rats were fed with a 0.5% salt diet or a 4% salt diet (Oriental Yeast Co., Ltd.) for 4 weeks (individually referred to as 0.5% salt diet group and 4% salt diet group). During the period, D-allose or D-glucose was orally given to the 4% salt diet group at 2 g daily/kg body weight (D-allose group or D-glucose group). The DR rats were fed with the 0.5% salt diet group and used as a normal control group. Blood pressure was measured by the tail-cuff method over time, while before salt loading and on the completion of salt loading, urine was collected for one day. On the last day of the observation period, the thoracic aorta was resected. A part thereof was used to quantify the amount of generated active oxygen in the aorta by the lucigenin method, while another part thereof was used to compare the amount of generated active oxygen between the groups by the dihydroxyethidium (DHE) fluorescence method. So as to assay the expression level of the messenger RNA of the NADPH oxidase involved in the increase of tissue oxidative stress (J Hypertens. 2004; 22:2161-2168), further, the renal cortex and the thoracic aorta were partially stored at −80° C.

[2] = Body weight, heart weight and kidney weight in SHR; conditions: 2 g daily/kg orally
Text: Male spontaneously hypertensive rats of age 8 weeks (SHR) and male Wister KYOTO rats (WKY) of the same age were used. SHR was fed with a 0.5% salt diet or a 8% salt diet (Oriental Yeast Co., Ltd.) for 4 weeks (individually referred to as the 0.5% salt diet group and the 8% salt diet group). Additionally, D-allose or D-glucose was orally given to the 0.5% salt diet group and the 8% salt diet group, at 2 g daily/kg body weight (D-allose group or D-glucose group) during the period. WKY was fed with the 0.5% salt diet and used as a normal control group. Systolic blood pressure was measured by the tail-cuff method over time.

[3] = Urine generation, Na and protein excretion in urine in DS rats; conditions: 4% salt diet, 2 g daily/kg orally, after 4-week feeding
Text: as §1

Compound	feed intake [1] [g/day/rat]	Body weight [1] [g]	Weight after 4 weeks ([2]; 0.5% salt diet) [g]	Weight after 4 weeks ([2]; 8% salt diet) [g]	Na excretion in urine [3] [mEq/day]	Urine volume [3] [mL/day]
O=C[C@H](O)[C@H](O)[C@H](O)[C@H](O)CO [D-allose]	20.6±0.8	345 ± 7	292 ± 4	304 ± 6	126 ± 6	28.7 ± 2.2
O=C[C@H](O)[C@@H](O)[C@H](O)[C@H](O)CO [D-glucose]	21.4±0.8	356 ± 10	301 ± 4	306 ± 5	123 ± 7	32.0 ± 2.9
